The target of experiment [1] is GFP–FKBP–Rab11a (UniProt P62491). The experiment in a line: knock-sideways relocalisation; A2780 cells expressing pMito-iRFP670-FRB and GFP-FKBP-Rab; rapamycin 200 nM for 4 h; fixed and stained for the endogenous candidate protein; mitochondrial overlap quantified.
The target of experiment [2] is T1, GFP–FKBP–Rab25 (UniProt P57735).
T1 sequence: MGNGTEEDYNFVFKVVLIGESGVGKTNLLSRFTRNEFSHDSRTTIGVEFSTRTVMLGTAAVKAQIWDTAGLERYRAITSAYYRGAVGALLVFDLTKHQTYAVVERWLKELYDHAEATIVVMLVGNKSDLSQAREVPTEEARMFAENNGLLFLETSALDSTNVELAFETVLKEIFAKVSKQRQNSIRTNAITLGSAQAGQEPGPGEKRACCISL
Described as above.

Chains of the proteins cited; added tags and fusions are not shown.
UniProt P62491: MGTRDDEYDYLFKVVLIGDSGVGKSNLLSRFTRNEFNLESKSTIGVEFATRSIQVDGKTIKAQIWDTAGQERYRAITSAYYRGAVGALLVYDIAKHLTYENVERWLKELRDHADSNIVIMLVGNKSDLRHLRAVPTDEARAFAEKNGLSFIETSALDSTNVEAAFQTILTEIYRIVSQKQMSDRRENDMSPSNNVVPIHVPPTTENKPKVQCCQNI
UniProt Q13596: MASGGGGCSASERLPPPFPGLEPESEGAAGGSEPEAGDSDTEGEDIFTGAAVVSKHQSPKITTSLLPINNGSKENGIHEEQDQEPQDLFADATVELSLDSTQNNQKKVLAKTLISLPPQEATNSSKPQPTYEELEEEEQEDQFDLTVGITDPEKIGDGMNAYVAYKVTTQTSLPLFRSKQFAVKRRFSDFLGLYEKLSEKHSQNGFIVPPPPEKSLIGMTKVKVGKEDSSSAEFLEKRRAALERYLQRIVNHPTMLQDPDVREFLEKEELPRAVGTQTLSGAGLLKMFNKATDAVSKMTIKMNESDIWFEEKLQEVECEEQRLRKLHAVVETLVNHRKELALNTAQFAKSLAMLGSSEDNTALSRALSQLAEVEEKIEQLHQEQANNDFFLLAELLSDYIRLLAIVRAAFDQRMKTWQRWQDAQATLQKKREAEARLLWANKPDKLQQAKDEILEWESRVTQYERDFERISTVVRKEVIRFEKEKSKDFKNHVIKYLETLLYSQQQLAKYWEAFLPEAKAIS
UniProt O60493: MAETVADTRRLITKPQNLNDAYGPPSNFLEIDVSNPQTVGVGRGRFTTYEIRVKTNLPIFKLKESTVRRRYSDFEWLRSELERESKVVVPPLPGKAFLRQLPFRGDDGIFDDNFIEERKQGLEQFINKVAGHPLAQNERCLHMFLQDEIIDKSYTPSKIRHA
UniProt Q9UBF8: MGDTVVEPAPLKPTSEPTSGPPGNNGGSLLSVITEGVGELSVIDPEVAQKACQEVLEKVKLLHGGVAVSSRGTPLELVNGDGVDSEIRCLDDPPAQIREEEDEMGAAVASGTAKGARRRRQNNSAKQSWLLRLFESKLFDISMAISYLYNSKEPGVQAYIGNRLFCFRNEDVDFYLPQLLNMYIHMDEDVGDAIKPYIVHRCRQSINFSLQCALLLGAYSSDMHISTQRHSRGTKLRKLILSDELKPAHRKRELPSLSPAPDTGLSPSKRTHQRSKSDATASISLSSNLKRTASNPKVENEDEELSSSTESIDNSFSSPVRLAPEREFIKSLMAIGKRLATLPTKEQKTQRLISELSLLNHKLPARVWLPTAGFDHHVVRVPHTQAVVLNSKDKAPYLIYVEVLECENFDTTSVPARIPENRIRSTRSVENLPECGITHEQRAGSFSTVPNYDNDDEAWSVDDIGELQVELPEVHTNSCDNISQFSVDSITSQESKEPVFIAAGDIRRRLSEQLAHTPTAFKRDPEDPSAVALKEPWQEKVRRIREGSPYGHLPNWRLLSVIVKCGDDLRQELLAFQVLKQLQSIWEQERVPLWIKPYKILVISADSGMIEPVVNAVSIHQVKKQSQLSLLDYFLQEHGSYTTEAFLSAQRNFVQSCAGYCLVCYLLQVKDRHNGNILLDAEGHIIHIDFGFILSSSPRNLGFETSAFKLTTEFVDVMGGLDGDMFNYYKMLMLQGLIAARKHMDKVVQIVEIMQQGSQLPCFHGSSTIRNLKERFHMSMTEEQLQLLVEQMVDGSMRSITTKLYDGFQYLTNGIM

For experiment [3], the target named is GFP–FKBP–Rab11a (UniProt P62491). The experiment in a line: knock-sideways relocalisation; live A2780 cells co-expressing mitochondrially targeted FRB, GFP-FKBP-Rab and mCherry-Rab11FIP5; rapamycin 200 nM; spinning-disk confocal imaging every 5 min for 1 h; Pearson's correlation with mitochondria.
In experiment [4] the target is T1, GFP–FKBP–Rab25. The experiment is described as above.

No constants are given. Whether binding was seen depends on the method and setting. Some entries that bind do so weakly or less than the wild type. For some assays here: Where a sequence is shown, tags or fusion partners need not be part of it.

These results are taken from publication PMC10323252.

Turning to SNX1 (from UniProt Q13596 1-522), in experiment [1], the binding result is “binds”.

Consider SNX3 (from UniProt O60493 1-162), for which the binding entry in experiment [2] is on record as “binds”.

PI4KB (from UniProt Q9UBF8 1-816): the binding result in experiment [1] was “binds”.

B1: CRACR2A (protein, UniProt Q9BSW2 1-731)
chain: MAAPDGRVVSRPQRLGQGSGQGPKGSGACLHPLDSLEQKETQEQTSGQLVMLRKAQEFFQTCDAEGKGFIARKDMQRLHKELPLSLEELEDVFDALDADGNGYLTPQEFTTGFSHFFFSQNNPSQEDAGEQVAQRHEEKVYLSRGDEDLGDMGEDEEAQFRMLMDRLGAQKVLEDESDVKQLWLQLKKEEPHLLSNFEDFLTRIISQLQEAHEEKNELECALKRKIAAYDEEIQHLYEEMEQQIKSEKEQFLLKDTERFQARSQELEQKLLCKEQELEQLTQKQKRLEGQCTALHHDKHETKAENTKLKLTNQELARELERTSWELQDAQQQLESLQQEACKLHQEKEMEVYRVTESLQREKAGLLKQLDFLRERNKHLRDERDICFQKNKAAKANTAASRASWKKRSGSVIGKYVDSRGILRSQSEEEEEVFGIPRRSSLGLSGYPLTEEEPGTGEPGPGGPYPRPLRRIISVEEDPLPQLLDGGFEQPLSKCSEEEEVSDQGVQGQIPEAPPLKLTPTSPRGQPVGKEALCKEESSPSAPDRLFKIVFVGNSAVGKTSFLRRFCEDRFSPGMAATVGIDYRVKTLNVDNSQVALQLWDTAGQERYRCITQQFFRKADGVIVMYDLTDKQSFLSVRRWLSSVEEAVGDRVPVLLLGNKLDNEKEREVPRGLGEQLATENNLIFYECSAYSGHNTKESLLHLARFLKEQEDTVREDTIQVGHPAKKKSCCG
As to B1, the binding entry in experiment [1] and in experiment [2] was “binds” throughout.

B2: SH3BP5L (protein, UniProt Q7L8J4 1-393)
chain: MAELRQVPGGRETPQGELRPEVVEDEVPRSPVAEEPGGGGSSSSEAKLSPREEEELDPRIQEELEHLNQASEEINQVELQLDEARTTYRRILQESARKLNTQGSHLGSCIEKARPYYEARRLAKEAQQETQKAALRYERAVSMHNAAREMVFVAEQGVMADKNRLDPTWQEMLNHATCKVNEAEEERLRGEREHQRVTRLCQQAEARVQALQKTLRRAIGKSRPYFELKAQFSQILEEHKAKVTELEQQVAQAKTRYSVALRNLEQISEQIHARRRGGLPPHPLGPRRSSPVGAEAGPEDMEDGDSGIEGAEGAGLEEGSSLGPGPAPDTDTLSLLSLRTVASDLQKCDSVEHLRGLSDHVSLDGQELGTRSGGRRGSDGGARGGRHQRSVSL
With B2, the binding result in experiment [1] and in experiment [2] was “binds” throughout.

B3: mCherry–Rab11FIP5 (protein, UniProt Q9BXF6 1-653)
chain: MALVRGAEPAAGPSRWLPTHVQVTVLRARGLRGKSSGAGSTSDAYTVIQVGREKYSTSVVEKTHGCPEWREECSFELPPGALDGLLRAQEADAGPAPWAASSAAACELVLTTMHRSLIGVDKFLGQATVALDEVFGAGRAQHTQWYKLHSKPGKKEKERGEIEVTIQFTRNNLSASMFDLSMKDKPRSPFSKIRDKMKGKKKYDLESASAILPSSAIEDPDLGSLGKMGKAKGFFLRNKLRKSSLTQSNTSLGSDSTLSSASGSLAYQGPGAELLTRSPSRSSWLSTEGGRDSAQSPKLFTHKRTYSDEANQMRVAPPRALLDLQGHLDAASRSSLCVNGSHIYNEEPQGPVRHRSSISGSLPSSGSLQAVSSRFSEEGPRSTDDTWPRGSRSNSSSEAVLGQEELSAQAKVLAPGASHPGEEEGARLPEGKPVQVATPIVASSEAVAEKEGARKEERKPRMGLFHHHHQGLSRSELGRRSSLGEKGGPILGASPHHSSSGEEKAKSSWFGLREAKDPTQKPSPHPVKPLSAAPVEGSPDRKQSRSSLSIALSSGLEKLKTVTSGSIQPVTQAPQAGQMVDTKRLKDSAVLDQSAKYYHLTHDELISLLLQRERELSQRDEHVQELESYIDRLLVRIMETSPTLLQIPPGPPK
Regarding B3, the binding result in experiment [3] and in experiment [4] was “binds” in each case.

B4: Rab11FIP5 (protein, UniProt Q9BXF6 1-653)
chain: MALVRGAEPAAGPSRWLPTHVQVTVLRARGLRGKSSGAGSTSDAYTVIQVGREKYSTSVVEKTHGCPEWREECSFELPPGALDGLLRAQEADAGPAPWAASSAAACELVLTTMHRSLIGVDKFLGQATVALDEVFGAGRAQHTQWYKLHSKPGKKEKERGEIEVTIQFTRNNLSASMFDLSMKDKPRSPFSKIRDKMKGKKKYDLESASAILPSSAIEDPDLGSLGKMGKAKGFFLRNKLRKSSLTQSNTSLGSDSTLSSASGSLAYQGPGAELLTRSPSRSSWLSTEGGRDSAQSPKLFTHKRTYSDEANQMRVAPPRALLDLQGHLDAASRSSLCVNGSHIYNEEPQGPVRHRSSISGSLPSSGSLQAVSSRFSEEGPRSTDDTWPRGSRSNSSSEAVLGQEELSAQAKVLAPGASHPGEEEGARLPEGKPVQVATPIVASSEAVAEKEGARKEERKPRMGLFHHHHQGLSRSELGRRSSLGEKGGPILGASPHHSSSGEEKAKSSWFGLREAKDPTQKPSPHPVKPLSAAPVEGSPDRKQSRSSLSIALSSGLEKLKTVTSGSIQPVTQAPQAGQMVDTKRLKDSAVLDQSAKYYHLTHDELISLLLQRERELSQRDEHVQELESYIDRLLVRIMETSPTLLQIPPGPPK
As to B4, the binding entry in experiment [1] and in experiment [2] was “binds” each time.
